The results in this text go back to JP2021136920A.

Results are given in words; binding and its absence hold for the method and conditions named. Binding calls can cover weak binding; strength is not graded here.

Assay [1] addresses A-peak-RSA (rabbit). Briefly: ELISA, concentration series on immobilised A-peak-RSA (Figure 36).
The target in assay [2] is A-peak-RSA (rabbit). Briefly: ELISA on immobilised A-peak-RSA, antibody 50 and 100 ng/mL. In general terms: An ELISA detects its analyte on a solid surface through an enzyme-linked reagent.

B1: PB−1キメラ抗体(ChPB-1NN VH/ChPB-1NN VL) (antibody, human IgG1, V domains shown)
VH: EVRLQQSGPELVKPGTSVKISCKASGYSFTGYYMHWVKQSPVKSLEWIGRIIPYNGATSYNQNFKDKASLTVDKSSRTAYMDLHSLTSEDSAVYYCARSRYYGRAPYYFDYWGQGTTLTVSS
VL: DVVVTQTPLSLPVSLGDQASISCRSSQSIVHSNGNTYLEWYLQKPGQSPKLLIYKVSNRFSGVPDRISGSGSGTDFTLKISRVEAGDLGVYSCFQGSHVPFTFGSGTKLEIK
Regarding B1, the binding result with A-peak-RSA (rabbit) [1] and with A-peak-RSA (rabbit) [2] was “binds” each time.

B2: PB−1ヒト化抗体 HuPB-1 VH1/HuPB-1 VL1 (antibody, human IgG1, V domains shown)
VH: QVQLVQSGAEVKKPGASVKVSCKASGYSFTGYYMHWVRQAPGQRLEWIGRIIPYSGATSYNQNFKDRATLTVDTSASTAYMELSSLRSEDTAVYYCARSRYYGRAPYYFDYWGQGTTVTVSS
VL: DIVMTQSPLSLPVTPGEPASISCRSSQSIVHSSGNTYLEWYLQKPGQSPQLLIYKVSNRFSGVPDRFSGSGSGTDFTLKISRVEAEDVGVYSCFQGSHVPFTFGGGTKVEIK
For the molecule B2, the binding result with A-peak-RSA (rabbit) [1] and with A-peak-RSA (rabbit) [2] was “binds” each time.

B3: PB−1ヒト化抗体 HuPB-1 VH2/HuPB-1 VL1 (antibody, human IgG1, V domains shown)
VH: QVQLVQSGAEVKKPGASVKVSCKASGYSFTGYYMHWVRQAPGQRLEWIGRIIPYSGATSYNQNFKDRATLTVDKSASTAYMELSSLRSEDTAVYYCARSRYYGRAPYYFDYWGQGTTVTVSS
VL: DIVMTQSPLSLPVTPGEPASISCRSSQSIVHSSGNTYLEWYLQKPGQSPQLLIYKVSNRFSGVPDRFSGSGSGTDFTLKISRVEAEDVGVYSCFQGSHVPFTFGGGTKVEIK
In the case of B3, the binding result with A-peak-RSA (rabbit) [1] and with A-peak-RSA (rabbit) [2] was “binds” in each case.

B4: PB−1ヒト化抗体 HuPB-1 VH1/HuPB-1 VL2 (antibody, human IgG1, V domains shown)
VH: QVQLVQSGAEVKKPGASVKVSCKASGYSFTGYYMHWVRQAPGQRLEWIGRIIPYSGATSYNQNFKDRATLTVDTSASTAYMELSSLRSEDTAVYYCARSRYYGRAPYYFDYWGQGTTVTVSS
VL: DIVMTQSPLSLPVTPGEPASISCRSSQSIVHSSGNTYLEWYLQKPGQSPQLLIYKVSNRFSGVPDRISGSGSGTDFTLKISRVEAEDVGVYSCFQGSHVPFTFGGGTKVEIK
On to B4, for which the binding entry with A-peak-RSA (rabbit) [1] and in the assay with A-peak-RSA (rabbit) [2] was “binds” each time.

B5: PB−1ヒト化抗体 HuPB-1 VH2/HuPB-1 VL2 (antibody, human IgG1, V domains shown)
VH: QVQLVQSGAEVKKPGASVKVSCKASGYSFTGYYMHWVRQAPGQRLEWIGRIIPYSGATSYNQNFKDRATLTVDKSASTAYMELSSLRSEDTAVYYCARSRYYGRAPYYFDYWGQGTTVTVSS
VL: DIVMTQSPLSLPVTPGEPASISCRSSQSIVHSSGNTYLEWYLQKPGQSPQLLIYKVSNRFSGVPDRISGSGSGTDFTLKISRVEAEDVGVYSCFQGSHVPFTFGGGTKVEIK
In the case of B5, the binding result in the assay with A-peak-RSA (rabbit) [1] and with A-peak-RSA (rabbit) [2] was “binds” in each case.
